In ChEMBL document CHEMBL1155126, “2-N-Methyl modifications and SAR studies of manzamine A” (Bioorg Med Chem, 2008):
≈ marks a conversion by molar mass, not a printed value.

Test system: Candida albicans
Assay: Antimicrobial activity against Candida albicans ATCC 90028
Type: functional, organism-based
How it was run: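 Modified CLSI broth microdilution; M. intracellulare by a modified Franzblau method. Samples were serially diluted in 20% DMSO/saline and tested in duplicate. Inocula were set by OD630 in broth. Growth was read before and after incubation at 630 nm, or by fluorescence 544ex/590em for A. fumigatus and M. intracellulare. MIC is the lowest concentration with no detectable growth; MFC/MBC is the lowest concentration giving no growth after 5 µL is subcultured to agar.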

- MIC: 0.68 µM (≈ 0.628 µg/mL)
SMILES: C[C@@H]1[C@H](O)[C@@H](C)/C=C/C=C/C=C/C=C/C=C/C=C/C=C/[C@H](O[C@@H]2O[C@H](C)[C@@H](O)[C@H](N)[C@@H]2O)C[C@@H]2O[C@](O)(C[C@@H](O)C[C@@H](O)[C@H](O)CC[C@@H](O)C[C@@H](O)CC(=O)O[C@H]1C)C[C@H](O)[C@H]2C(=O)O [AMPHOTERICIN B]
